Results published in publication doi:10.1101/815282.
No constants are given. Whether binding was seen depends on the method and setting. In cells and extracts the contact can be indirect. Some entries that bind do so weakly or less than the wild type. For some assays here: Sequences can lack the tags named with a protein.

Protein sequences, listed by entry. Tags and fused reporters are not part of them. Residues count along the entry.
UniProt D0NMF6, residues 21-241: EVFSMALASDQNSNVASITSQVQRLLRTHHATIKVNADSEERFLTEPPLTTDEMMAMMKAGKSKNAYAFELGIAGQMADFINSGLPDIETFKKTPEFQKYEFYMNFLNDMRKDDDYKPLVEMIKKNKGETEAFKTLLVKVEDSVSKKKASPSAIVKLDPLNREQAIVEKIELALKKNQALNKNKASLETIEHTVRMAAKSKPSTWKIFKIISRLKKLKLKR

Columns and labels:
[1] = molecular target: Phytophthora infestans RXLR effector SFI5 (BiFC fusion) (Phytophthora infestans) (UniProt D0NMF6); experiment: split reporter
[2] = molecular target: T1, BIR2 (BiFC fusion) (Arabidopsis thaliana) (UniProt Q9LSI9); experiment: split reporter
T1 sequence: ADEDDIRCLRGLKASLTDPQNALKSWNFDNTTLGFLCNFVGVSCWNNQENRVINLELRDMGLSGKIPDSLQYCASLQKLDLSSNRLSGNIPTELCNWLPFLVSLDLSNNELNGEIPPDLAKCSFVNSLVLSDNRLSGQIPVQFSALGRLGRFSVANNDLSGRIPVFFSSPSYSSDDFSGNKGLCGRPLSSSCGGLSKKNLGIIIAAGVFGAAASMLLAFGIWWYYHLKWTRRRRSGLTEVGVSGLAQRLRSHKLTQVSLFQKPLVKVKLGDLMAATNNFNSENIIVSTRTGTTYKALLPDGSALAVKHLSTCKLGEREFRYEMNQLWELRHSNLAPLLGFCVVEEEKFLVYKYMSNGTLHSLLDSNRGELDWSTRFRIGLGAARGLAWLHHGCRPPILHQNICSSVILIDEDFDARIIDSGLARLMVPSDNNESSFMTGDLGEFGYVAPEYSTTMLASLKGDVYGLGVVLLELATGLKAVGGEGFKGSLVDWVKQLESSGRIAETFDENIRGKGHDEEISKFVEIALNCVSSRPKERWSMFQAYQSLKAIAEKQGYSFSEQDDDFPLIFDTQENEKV

In the case of “Arabidopsis Calmodulin AtCaM1 (BiFC fusion) (from UniProt P0DH95 1-149)”, the binding [1] is reported as “binds”.

B1: PLDγ1 (BiFC fusion) (enzyme, UniProt Q9T053 1-858)
chain: MAYHPAYTETMSMGGGSSHGGGQQYVPFATSSGSLRVELLHGNLDIWVKEAKHLPNMDGFHNRLGGMLSGLGRKKVEGEKSSKITSDPYVTVSISGAVIGRTFVISNSENPVWMQHFDVPVAHSAAEVHFVVKDSDIIGSQIMGAVGIPTEQLCSGNRIEGLFPILNSSGKPCKQGAVLGLSIQYTPMERMRLYQMGVGSGNECVGVPGTYFPLRKGGRVTLYQDAHVDDGTLPSVHLDGGIQYRHGKCWEDMADAIRQARRLIYITGWSVFHPVRLVRRTNDPTEGTLGELLKVKSQEGVRVLVLVWDDPTSRSLLGFKTQGVMNTSDEETRRFFKHSSVQVLLCPRSGGKGHSFIKKSEVGTIYTHHQKTVIVDAEAAQNRRKIVAFVGGLDLCNGRFDTPKHPLFRTLKTLHKDDFHNPNFVTTADDGPREPWHDLHSKIDGPAAYDVLANFEERWMKASKPRGIGKLKSSSDDSLLRIDRIPDIVGLSEASSANDNDPESWHVQVFRSIDSSSVKGFPKDPKEATGRNLLCGKNILIDMSIHAAYVKAIRSAQHFIYIENQYFLGSSFNWDSNKDLGANNLIPMEIALKIANKIRAREKFAAYIVIPMWPEGAPTSNPIQRILYWQHKTMQMMYQTIYKALVEVGLDSQFEPQDFLNFFCLGTREVPVGTVSVYNSPRKPPQPNANANAAQVQALKSRRFMIYVHSKGMVVDDEFVLIGSANINQRSLEGTRDTEIAMGGYQPHYSWAMKGSRPHGQIFGYRMSLWAEHLGFLEQGFEEPENMECVRRVRQLSELNWRQYAAEEVTEMSGHLLKYPVQVDRTGKVSSLPGCETFPDLGGKIIGSFLALQENLTI
For B1, the binding [2] was “no binding”.
